Source: ChEMBL document CHEMBL3988442, “University of Dundee, Small-Polar-MMV Screening Library” (2021).

By UniProt entry, the sequences of proteins in these tests, tags left out.
UniProt E9BF75, entry or part of it: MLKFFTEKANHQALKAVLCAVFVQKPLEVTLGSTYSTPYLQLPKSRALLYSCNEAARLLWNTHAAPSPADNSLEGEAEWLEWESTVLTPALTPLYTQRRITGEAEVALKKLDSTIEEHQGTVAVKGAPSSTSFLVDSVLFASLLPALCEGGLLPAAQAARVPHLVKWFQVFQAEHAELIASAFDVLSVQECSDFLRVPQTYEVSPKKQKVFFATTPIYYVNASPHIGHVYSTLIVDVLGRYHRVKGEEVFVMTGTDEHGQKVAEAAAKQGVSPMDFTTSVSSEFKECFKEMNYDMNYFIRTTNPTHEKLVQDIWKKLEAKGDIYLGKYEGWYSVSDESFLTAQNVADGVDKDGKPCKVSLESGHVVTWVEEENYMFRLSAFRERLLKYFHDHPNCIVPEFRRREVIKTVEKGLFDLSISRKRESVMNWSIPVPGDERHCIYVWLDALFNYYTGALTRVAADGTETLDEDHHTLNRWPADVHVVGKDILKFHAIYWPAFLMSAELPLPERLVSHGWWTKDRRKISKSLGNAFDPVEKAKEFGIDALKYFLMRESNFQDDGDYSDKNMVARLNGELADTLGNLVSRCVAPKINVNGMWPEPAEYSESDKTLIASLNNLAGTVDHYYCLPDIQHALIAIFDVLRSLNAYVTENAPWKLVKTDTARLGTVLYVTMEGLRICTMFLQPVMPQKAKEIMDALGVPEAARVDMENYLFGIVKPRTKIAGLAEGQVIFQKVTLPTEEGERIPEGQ

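Primary screen of methionyl-tRNA synthetase; the read-out is not stated. Target: Methionyl-tRNA synthetase (putative), Leishmania donovani (UniProt E9BF75). The test concentration is not given. Values are per cent inhibition. About 68,000 compounds were tested under these conditions; 0.035% (about 24) showed 50% or more at least once.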

All values are in %. The controls that fix the scale are not given in the record; negative values are as filed. This is an unselected part of the compounds tested.

- COCC1CCN(c2ccnc3ccsc23)C1 (configuration not stated) | 11.58%
- COc1ccc(F)c(F)c1CN1CCC2(CC1)[C@H](O)C[C@@H]2OCCN | 17.01%
- CCc1nn(C)c(Cl)c1CN1CCN(c2ccc(C(N)=O)cn2)CC1 | 11.98%
- Cc1ncsc1C(=O)N1CCN(CCC(C)C)CC1 | 11.27%
- Cc1c[nH]nc1C1CCN(S(=O)(=O)N(C)C)CC1 | 14.73%
- OC[C@H]1CN(Cc2c(Cl)cccc2Cl)C[C@H]1CN1CCCCC1 | -2.405%
- CN1CC(C(=O)N2CCC(Oc3ccccc3Cl)CC2)CC1=O (configuration not stated) | 7.453%
- O=S(=O)(Cc1ccccc1)NC[C@H]1Cn2ccnc2CO1 | 9.831%
- Cc1cc(C)c(CNC(=O)NCC(O)c2cccc(F)c2)c(=O)[nH]1 (configuration not stated) | 18.11%
- c1cc(-c2ccc3nc(C4CCN(CC5CC5)CC4)nn3c2)cs1 | 18.75%
- NS(=O)(=O)c1cnn(CCC(=O)N(Cc2ccccc2)C2CC2)c1 | 8.527%
- CC(=O)N(Cc1ncc(C(C)C)o1)C1CCN(CCn2cccn2)C1 (configuration not stated) | 13.02%
- O=C1CC2(CCN(CC3CC3)C2)CN1c1cccc(F)c1 (configuration not stated) | 7.063%
- Cc1n[nH]c(C2CN(C(=O)c3csnn3)CCO2)n1 (configuration not stated) | 13.54%
- Cc1[nH]ncc1C(=O)N1CCCC1c1noc(C2CC2)n1 (configuration not stated) | 4.819%
- Cc1n[nH]cc1CNCC1(c2ccc3c(c2)OCO3)CCOCC1 | 1.918%
- Cc1c(C(=O)NCc2ccnc(OCC(F)(F)F)c2)cnn1C | 14.75%
- CC(=O)NCCCSC1CCCN(c2ccccc2Cl)C1=O (configuration not stated) | 6.115%
- CCOCCNC(=O)[C@@H]1CCCN1c1nccc(Nc2ccccc2)n1 | 10.83%
- O=C(c1ccnc(N2CCOC(C(F)(F)F)C2)c1)N1CCOCC1 (configuration not stated) | 15.59%
- O=C([C@H]1COC[C@H]2CN(C3CCOCC3)C[C@H]21)N1CCC(F)CC1 | 13.45%
- Cc1oc(C(=O)O)cc1S(=O)(=O)Nc1c(F)cccc1-n1cccn1 | 8.78%
- CN(C)CCN(Cc1cccc(F)c1)C(=O)c1ccc2nccn2c1 | 5.389%
- CN1CCC(N(Cc2ccncc2)Cc2nc3c(s2)CCCC3)CC1 | 8.393%
- c1cnc(N2C[C@H](OCC3CCOCC3)[C@H]3COC[C@H]32)nc1 | 12.68%
- COc1cccc(CNCc2cccc(Cl)c2)c1O | 8.009%
- Cc1ccc(N(C)Cc2nnnn2C2CC2)c(C)c1 | -6.964%
- CNc1cc2c(nn1)CCN(C(=O)c1ccccc1-n1cccn1)C2 | 12.38%
- O=C(c1ccoc1)N1CCC(NCc2cccnc2)CC1 | 3.631%
- O=C(NCCn1ccnc1)c1cc(F)cc(Br)c1 | 11.7%
- CCc1nc(NS(=O)(=O)c2ccc(F)cc2C)no1 | 9.756%
- COc1cccc(CN(C)CCCn2cnc3c(N)ncnc32)c1 | 15.26%
- N#Cc1cccc(NC(=O)N[C@H](CO)c2ccccc2)c1 | 11.96%
- CC(C)c1nc(C2CCCNC2)no1 (configuration not stated) | 9.699%
- Cn1ncc2c(NCC3CCS(=O)(=O)C3)nc(-c3ccncc3)nc21 (configuration not stated) | 4.337%
- Cn1cccc1C(=O)N1CCC2(CCCN(CC3CCC3)C2=O)C1 (configuration not stated) | 15.6%
- Cc1nn(C)c(N2CCOCC2)c1CNC1CCc2ccccc2C1 (configuration not stated) | 13.62%
- O=C(O)c1ccccc1CN1CCC2(Cc3ccccc3CNC2=O)C1 (configuration not stated) | 17.14%
- Cc1ccc(OCC(C)NS(C)(=O)=O)cc1C (configuration not stated) | 7.971%
- CCC(=O)N1CCC(c2cncc(Oc3cccnc3)n2)CC1 | 13.56%
- CN(C)CCN1CCCC12CCN(C(=O)c1cnccn1)CC2 | 15.82%
- Cc1ccccc1N1CCCN(C(=O)CN2C(=O)OC[C@@H]2C(C)C)CC1 | 0%
- Cc1cc(CN(C)C(=O)C2CC(c3cccc(F)c3)=NO2)no1 (configuration not stated) | 17.01%
- CN(C)CC1(O)CCN(C(=O)Cc2ccc3c(c2)CCC3)C1 (configuration not stated) | 22.33%
- O=C(Cc1cnc(-c2c(Cl)cccc2Cl)s1)N1CCOCC1 | 10.22%
- CC(C)NC(=O)N1CCc2ncnc(-c3ccncc3)c2CC1 | 1.093%
- c1nc(N2CCCCC2Cn2cncn2)c2ccsc2n1 (configuration not stated) | 8.78%
- O=C(CSCCN1CCOCC1)N1CCCCCC1 | 7.165%
- c1csc(-c2noc(CCCNC3CCc4ncnn4C3)n2)c1 (configuration not stated) | -3.509%
- N#Cc1ccnc(N2CCC(c3nccn3Cc3cscn3)CC2)c1 | 5.854%
- CN(CCn1cnc(-c2ccccc2)c1-c1ncc[nH]1)S(C)(=O)=O | 3.684%

5 of the entries, repeated:

Compound	Inhibition
CCc1nc(NS(=O)(=O)c2ccc(F)cc2C)no1	9.756
Cc1n[nH]cc1CNCC1(c2ccc3c(c2)OCO3)CCOCC1	1.918
O=C(NCCn1ccnc1)c1cc(F)cc(Br)c1	11.7
O=C(c1ccnc(N2CCOC(C(F)(F)F)C2)c1)N1CCOCC1 (configuration not stated)	15.59
Cc1nn(C)c(N2CCOCC2)c1CNC1CCc2ccccc2C1 (configuration not stated)	13.62